Experimental data: the supplement of paper PMC12823440, “Inhibitors supercharge kinase turnover through native proteolytic circuits” (Nature, 2025)
Some of the results follow. Hit calls seldom repeat between salt and free forms of one compound.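 Kinases, fused to nanoluciferase, were expressed in K562 cells; luminescence was measured every 4 h from 2 to 18 h as percent of control (DMSO = 100%, positive control = 0%). A time point is decreased if signal falls significantly (2 sigma). Hits were called by the authors by a rule that is not shown; the count of time points alone does not decide it.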

Sequences of proteins named here, by UniProt entry; tags and fusion partners are left off. A change or cut given only in a name is not applied to a line headed by its entry.
UniProt Q13546: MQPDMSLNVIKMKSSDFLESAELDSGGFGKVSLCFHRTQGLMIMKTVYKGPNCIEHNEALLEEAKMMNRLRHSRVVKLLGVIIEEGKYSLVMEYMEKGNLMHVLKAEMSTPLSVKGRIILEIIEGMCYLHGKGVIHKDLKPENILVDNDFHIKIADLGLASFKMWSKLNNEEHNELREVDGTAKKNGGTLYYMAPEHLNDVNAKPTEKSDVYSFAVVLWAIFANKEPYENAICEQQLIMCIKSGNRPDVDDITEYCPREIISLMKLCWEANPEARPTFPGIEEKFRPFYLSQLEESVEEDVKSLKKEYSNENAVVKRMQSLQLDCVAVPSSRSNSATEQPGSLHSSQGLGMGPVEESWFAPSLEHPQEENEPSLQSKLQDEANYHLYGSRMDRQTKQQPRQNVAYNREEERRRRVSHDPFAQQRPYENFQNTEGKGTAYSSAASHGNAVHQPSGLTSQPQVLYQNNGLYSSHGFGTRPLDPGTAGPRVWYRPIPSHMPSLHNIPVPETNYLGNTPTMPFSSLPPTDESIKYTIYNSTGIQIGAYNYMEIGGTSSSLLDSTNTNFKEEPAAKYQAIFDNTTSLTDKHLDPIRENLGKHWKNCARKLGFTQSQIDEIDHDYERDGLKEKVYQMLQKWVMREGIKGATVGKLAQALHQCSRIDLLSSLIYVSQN
UniProt Q15418, whole entry: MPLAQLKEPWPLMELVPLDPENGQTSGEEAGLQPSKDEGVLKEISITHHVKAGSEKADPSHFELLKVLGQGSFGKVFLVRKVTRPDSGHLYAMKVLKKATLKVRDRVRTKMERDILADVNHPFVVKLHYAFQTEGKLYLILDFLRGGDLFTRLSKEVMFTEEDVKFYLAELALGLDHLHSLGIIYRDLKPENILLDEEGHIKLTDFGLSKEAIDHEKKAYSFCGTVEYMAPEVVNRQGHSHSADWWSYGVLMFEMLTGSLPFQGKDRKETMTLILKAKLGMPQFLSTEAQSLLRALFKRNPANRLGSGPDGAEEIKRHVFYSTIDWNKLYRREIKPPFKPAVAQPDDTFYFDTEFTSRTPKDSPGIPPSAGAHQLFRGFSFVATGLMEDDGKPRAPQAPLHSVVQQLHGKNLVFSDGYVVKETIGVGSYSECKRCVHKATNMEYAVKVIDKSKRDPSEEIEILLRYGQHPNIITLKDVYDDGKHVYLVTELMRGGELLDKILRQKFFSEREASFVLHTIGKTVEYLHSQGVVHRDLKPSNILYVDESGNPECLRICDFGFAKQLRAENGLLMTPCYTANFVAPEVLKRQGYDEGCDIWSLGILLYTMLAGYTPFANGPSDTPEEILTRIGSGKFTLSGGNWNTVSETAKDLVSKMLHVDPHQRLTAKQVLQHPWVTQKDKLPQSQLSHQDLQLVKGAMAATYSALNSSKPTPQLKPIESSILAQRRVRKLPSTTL
UniProt Q9Y6E0: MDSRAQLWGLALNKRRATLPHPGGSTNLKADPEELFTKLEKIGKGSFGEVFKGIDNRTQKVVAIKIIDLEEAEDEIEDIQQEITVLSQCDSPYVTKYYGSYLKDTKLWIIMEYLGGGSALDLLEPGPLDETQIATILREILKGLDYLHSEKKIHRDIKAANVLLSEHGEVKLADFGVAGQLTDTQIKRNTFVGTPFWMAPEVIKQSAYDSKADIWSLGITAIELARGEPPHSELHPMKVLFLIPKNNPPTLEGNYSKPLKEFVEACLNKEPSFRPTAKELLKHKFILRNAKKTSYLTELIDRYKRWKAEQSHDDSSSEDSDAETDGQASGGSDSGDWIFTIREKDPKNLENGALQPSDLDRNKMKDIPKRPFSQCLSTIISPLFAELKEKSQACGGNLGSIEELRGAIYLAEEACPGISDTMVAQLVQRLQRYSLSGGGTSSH
UniProt P42680: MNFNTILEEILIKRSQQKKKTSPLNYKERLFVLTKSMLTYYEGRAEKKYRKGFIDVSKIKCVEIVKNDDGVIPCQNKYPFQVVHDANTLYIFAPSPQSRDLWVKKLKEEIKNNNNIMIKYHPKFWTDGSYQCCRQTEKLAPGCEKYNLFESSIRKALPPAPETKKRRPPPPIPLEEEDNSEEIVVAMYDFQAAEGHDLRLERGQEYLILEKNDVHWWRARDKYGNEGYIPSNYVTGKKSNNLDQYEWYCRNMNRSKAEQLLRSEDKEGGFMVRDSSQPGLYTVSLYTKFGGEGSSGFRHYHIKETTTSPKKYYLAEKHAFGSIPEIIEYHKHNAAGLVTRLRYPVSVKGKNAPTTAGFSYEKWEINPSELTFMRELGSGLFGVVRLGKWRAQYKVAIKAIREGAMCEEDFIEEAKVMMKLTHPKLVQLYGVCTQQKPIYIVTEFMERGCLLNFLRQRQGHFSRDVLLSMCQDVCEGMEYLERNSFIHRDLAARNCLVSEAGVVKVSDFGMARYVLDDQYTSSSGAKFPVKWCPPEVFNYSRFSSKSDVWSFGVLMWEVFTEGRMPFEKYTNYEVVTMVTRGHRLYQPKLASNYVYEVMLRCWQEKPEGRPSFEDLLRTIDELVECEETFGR
UniProt P29597: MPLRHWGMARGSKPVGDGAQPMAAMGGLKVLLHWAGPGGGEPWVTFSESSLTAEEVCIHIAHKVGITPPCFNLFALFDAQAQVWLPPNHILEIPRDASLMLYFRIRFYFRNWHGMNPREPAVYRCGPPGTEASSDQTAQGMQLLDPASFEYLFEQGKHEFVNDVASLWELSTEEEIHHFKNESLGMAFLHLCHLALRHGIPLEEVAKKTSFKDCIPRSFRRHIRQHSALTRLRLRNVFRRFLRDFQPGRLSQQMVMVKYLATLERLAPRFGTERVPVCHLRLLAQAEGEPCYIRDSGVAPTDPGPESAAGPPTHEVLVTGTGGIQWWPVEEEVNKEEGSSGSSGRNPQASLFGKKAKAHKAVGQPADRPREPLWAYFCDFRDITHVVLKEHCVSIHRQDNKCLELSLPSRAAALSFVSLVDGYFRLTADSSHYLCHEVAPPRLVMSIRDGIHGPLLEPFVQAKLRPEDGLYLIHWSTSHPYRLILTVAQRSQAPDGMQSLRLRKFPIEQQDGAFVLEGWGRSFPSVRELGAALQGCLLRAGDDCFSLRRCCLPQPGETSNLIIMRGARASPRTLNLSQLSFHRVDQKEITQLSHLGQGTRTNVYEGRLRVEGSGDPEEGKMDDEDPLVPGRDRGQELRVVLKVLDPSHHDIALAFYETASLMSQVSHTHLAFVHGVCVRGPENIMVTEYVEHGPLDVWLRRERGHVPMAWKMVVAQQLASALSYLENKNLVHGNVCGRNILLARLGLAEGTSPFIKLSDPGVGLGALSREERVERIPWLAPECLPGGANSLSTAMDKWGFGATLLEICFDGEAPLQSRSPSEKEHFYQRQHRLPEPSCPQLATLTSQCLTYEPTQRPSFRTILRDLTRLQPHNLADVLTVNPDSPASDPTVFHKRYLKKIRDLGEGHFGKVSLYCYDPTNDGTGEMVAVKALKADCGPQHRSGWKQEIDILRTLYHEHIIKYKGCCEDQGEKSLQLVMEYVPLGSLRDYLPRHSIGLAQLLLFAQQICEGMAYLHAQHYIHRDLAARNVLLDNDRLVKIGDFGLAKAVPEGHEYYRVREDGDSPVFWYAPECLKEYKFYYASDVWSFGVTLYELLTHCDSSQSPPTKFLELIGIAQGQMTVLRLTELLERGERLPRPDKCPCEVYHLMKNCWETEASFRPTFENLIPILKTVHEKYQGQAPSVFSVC
UniProt P11802: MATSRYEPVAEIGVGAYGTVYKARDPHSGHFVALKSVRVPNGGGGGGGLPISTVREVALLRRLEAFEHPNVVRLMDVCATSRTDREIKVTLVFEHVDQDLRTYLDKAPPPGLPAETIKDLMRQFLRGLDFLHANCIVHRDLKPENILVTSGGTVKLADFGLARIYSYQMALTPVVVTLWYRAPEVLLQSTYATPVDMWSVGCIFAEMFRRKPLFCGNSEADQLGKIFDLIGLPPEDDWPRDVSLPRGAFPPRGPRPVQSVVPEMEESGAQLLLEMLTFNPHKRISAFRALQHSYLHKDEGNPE
UniProt P50613: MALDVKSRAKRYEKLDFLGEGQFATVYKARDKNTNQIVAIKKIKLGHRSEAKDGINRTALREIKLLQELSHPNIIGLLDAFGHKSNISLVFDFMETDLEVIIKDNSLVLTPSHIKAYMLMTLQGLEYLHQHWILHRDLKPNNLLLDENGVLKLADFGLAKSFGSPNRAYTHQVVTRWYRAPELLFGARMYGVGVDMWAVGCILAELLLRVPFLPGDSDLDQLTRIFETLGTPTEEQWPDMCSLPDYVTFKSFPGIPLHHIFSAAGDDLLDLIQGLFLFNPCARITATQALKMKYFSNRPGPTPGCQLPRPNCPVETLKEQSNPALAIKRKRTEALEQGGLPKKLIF
UniProt P07949, whole entry, looked up: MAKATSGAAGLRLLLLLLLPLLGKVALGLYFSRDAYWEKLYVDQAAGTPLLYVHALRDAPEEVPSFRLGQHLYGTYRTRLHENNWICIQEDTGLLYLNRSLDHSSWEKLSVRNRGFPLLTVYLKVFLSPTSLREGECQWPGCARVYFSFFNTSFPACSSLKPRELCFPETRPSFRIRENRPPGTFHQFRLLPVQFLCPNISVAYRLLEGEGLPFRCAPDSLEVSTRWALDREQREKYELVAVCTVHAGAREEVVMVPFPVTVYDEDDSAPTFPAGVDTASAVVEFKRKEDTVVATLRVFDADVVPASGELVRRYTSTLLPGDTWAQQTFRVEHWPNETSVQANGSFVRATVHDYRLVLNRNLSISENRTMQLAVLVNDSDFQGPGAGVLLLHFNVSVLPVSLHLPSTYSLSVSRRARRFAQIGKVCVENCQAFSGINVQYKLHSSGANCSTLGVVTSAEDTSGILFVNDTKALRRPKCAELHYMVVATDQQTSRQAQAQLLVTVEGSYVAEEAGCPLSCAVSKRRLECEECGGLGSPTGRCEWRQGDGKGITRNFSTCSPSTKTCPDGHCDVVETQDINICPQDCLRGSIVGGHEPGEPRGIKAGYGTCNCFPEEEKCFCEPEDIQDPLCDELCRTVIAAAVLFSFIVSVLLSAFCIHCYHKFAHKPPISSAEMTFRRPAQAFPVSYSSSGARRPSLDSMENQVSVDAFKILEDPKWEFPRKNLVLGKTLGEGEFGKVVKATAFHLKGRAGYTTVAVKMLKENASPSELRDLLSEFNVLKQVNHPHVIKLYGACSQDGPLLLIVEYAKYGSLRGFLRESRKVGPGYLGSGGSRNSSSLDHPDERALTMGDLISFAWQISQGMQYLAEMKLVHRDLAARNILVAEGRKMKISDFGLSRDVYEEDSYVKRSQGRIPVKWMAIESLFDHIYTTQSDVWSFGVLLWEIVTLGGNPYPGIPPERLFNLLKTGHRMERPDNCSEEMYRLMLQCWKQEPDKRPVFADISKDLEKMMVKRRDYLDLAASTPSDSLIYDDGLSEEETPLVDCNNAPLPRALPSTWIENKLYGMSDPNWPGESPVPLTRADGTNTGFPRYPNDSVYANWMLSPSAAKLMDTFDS
UniProt P07949, whole entry M918T, looked up: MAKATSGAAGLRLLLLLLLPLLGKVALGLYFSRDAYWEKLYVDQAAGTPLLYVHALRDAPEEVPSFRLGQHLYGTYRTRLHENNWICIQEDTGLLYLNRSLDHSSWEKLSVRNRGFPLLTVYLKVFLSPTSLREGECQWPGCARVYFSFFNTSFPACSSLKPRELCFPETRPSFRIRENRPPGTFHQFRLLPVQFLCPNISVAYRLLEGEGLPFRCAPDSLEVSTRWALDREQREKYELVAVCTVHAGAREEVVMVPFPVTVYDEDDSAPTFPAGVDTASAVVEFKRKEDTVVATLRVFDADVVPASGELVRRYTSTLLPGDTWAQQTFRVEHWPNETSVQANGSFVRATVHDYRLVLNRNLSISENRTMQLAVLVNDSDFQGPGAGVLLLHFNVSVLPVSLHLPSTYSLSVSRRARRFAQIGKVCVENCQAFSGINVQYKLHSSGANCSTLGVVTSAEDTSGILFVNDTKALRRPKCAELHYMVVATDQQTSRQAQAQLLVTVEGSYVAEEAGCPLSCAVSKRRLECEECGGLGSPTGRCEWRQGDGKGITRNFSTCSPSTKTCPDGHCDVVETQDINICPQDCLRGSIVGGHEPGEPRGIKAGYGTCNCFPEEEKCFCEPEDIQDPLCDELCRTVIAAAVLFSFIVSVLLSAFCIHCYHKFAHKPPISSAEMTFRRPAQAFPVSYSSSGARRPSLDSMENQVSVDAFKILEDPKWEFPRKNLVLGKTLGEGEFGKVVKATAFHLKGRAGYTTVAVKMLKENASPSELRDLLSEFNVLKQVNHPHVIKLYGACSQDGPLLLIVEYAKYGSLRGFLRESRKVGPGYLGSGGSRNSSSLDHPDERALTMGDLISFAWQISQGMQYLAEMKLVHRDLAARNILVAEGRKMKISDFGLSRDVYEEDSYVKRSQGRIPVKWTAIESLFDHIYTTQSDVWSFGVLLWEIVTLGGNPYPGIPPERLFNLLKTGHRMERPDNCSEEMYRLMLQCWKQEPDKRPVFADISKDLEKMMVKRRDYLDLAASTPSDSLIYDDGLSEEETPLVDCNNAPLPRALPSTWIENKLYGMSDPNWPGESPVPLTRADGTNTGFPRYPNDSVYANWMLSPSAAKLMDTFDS

Columns and labels:
Settings in all cases: K562, 2-18 h
[1] = target: RIOK1 (UniProt Q9BRS2); test: kinase-Nluc reporter destabilization hit call (1 = scored as downregulated) (binary); higher = compound decreases kinase abundance
[2] = target: RIPK1 (UniProt Q13546); test: as above
[3] = target: RIPK2 (UniProt O43353); test: as above
[4] = target: ROR2 (UniProt Q01974); test: as above
[5] = target: RPS6KA1 (UniProt Q15418); test: as above
[6] = target: SPHK1 (UniProt Q9NYA1); test: as above
[7] = target: SRC (UniProt P12931); test: as above
[8] = target: STK24 (UniProt Q9Y6E0); test: as above
[9] = target: STK38 (UniProt Q15208); test: as above
[10] = target: SYK (UniProt P43405); test: as above
[11] = target: TEC (UniProt P42680); test: as above
[12] = target: TYK2 (UniProt P29597); test: as above
[13] = target: ULK3 (UniProt Q6PHR2); test: as above
[14] = target: YES1 (UniProt P07947); test: as above
[15] = target: ZAP70 (UniProt P43403); test: as above
[16] = target: CDK4 (UniProt P11802); test: number of time points (of 4; 2 h point missing) at which kinase-Nluc abundance scored as decreased, DMSO-normalised (count); higher = more persistent destabilization
[17] = target: CDK7 (UniProt P50613); test: as above
[18] = target: ZAK (UniProt Q9NYL2); test: kinase-Nluc reporter destabilization hit call (1 = scored as downregulated) (binary); higher = compound decreases kinase abundance
[19] = target: RET (UniProt P07949); test: as above
[20] = target: RET_M918T (clone: RET_mut) (UniProt P07949); test: as above

**Q.** What does the source list for `COc1cc2/c(=N/c3ccc(Br)cc3F)nc[nH]c2cc1OCC1CCN(C)CC1` [Vandetanib]?
**A.** kinase-Nluc reporter destabilization hit call ([1]; 2.5 µM): inactive: 0; kinase-Nluc reporter destabilization hit call ([2]; 2.5 µM): inactive: 0; kinase-Nluc reporter destabilization hit call ([3]; 2.5 µM): inactive: 0; kinase-Nluc reporter destabilization hit call ([4]; 2.5 µM): inactive: 0; kinase-Nluc reporter destabilization hit call ([5]; 2.5 µM): inactive: 0; kinase-Nluc reporter destabilization hit call ([6]; 2.5 µM): inactive: 0; kinase-Nluc reporter destabilization hit call ([7]; 2.5 µM): inactive: 0; kinase-Nluc reporter destabilization hit call ([8]; 2.5 µM): inactive: 0; kinase-Nluc reporter destabilization hit call ([9]; 2.5 µM): inactive: 0; kinase-Nluc reporter destabilization hit call ([10]; 2.5 µM): inactive: 0; kinase-Nluc reporter destabilization hit call ([11]; 2.5 µM): inactive: 0; kinase-Nluc reporter destabilization hit call ([12]; 2.5 µM): inactive: 0; kinase-Nluc reporter destabilization hit call ([13]; 2.5 µM): inactive: 0; kinase-Nluc reporter destabilization hit call ([14]; 2.5 µM): inactive: 0; kinase-Nluc reporter destabilization hit call ([15]; 2.5 µM): inactive: 0; number of time points ([16]; 2.5 µM): 0; number of time points ([17]; 2.5 µM): 0

**Q.** What does the source list for `COc1cc(N2CCC(N3CCN(C)CC3)CC2)ccc1Nc1ncc(Cl)c(Nc2ccccc2S(=O)(=O)C(C)C)n1`?
**A.** kinase-Nluc reporter destabilization hit call ([1]; 2.5 µM): inactive: 0; kinase-Nluc reporter destabilization hit call ([2]; 2.5 µM): inactive: 0; kinase-Nluc reporter destabilization hit call ([3]; 2.5 µM): inactive: 0; kinase-Nluc reporter destabilization hit call ([4]; 2.5 µM): inactive: 0; kinase-Nluc reporter destabilization hit call ([5]; 2.5 µM): inactive: 0; kinase-Nluc reporter destabilization hit call ([6]; 2.5 µM): inactive: 0; kinase-Nluc reporter destabilization hit call ([7]; 2.5 µM): inactive: 0; kinase-Nluc reporter destabilization hit call ([8]; 2.5 µM): inactive: 0; kinase-Nluc reporter destabilization hit call ([9]; 2.5 µM): inactive: 0; kinase-Nluc reporter destabilization hit call ([10]; 2.5 µM): inactive: 0; kinase-Nluc reporter destabilization hit call ([11]; 2.5 µM): inactive: 0; kinase-Nluc reporter destabilization hit call ([12]; 2.5 µM): inactive: 0; kinase-Nluc reporter destabilization hit call ([13]; 2.5 µM): inactive: 0; kinase-Nluc reporter destabilization hit call ([14]; 2.5 µM): inactive: 0; kinase-Nluc reporter destabilization hit call ([18]; 2.5 µM): inactive: 0; kinase-Nluc reporter destabilization hit call ([15]; 2.5 µM): inactive: 0; number of time points ([16]; 2.5 µM): 0; number of time points ([17]; 2.5 µM): 0

**Q.** With `N#CC(=Cc1cc(Cl)cc(Cl)c1)c1cccnc1` as the molecule, how does the “kinase-Nluc reporter destabilization hit call” value ([19]; 10 µM) read?
**A.** inactive: 0

**Q.** And the “kinase-Nluc reporter destabilization hit call” value ([20]; 10 µM)?
**A.** inactive: 0

**Q.** And the “kinase-Nluc reporter destabilization hit call” value ([6]; 10 µM)?
**A.** inactive: 0

**Q.** What about the “kinase-Nluc reporter destabilization hit call” value ([7]; 10 µM) of the same molecule?
**A.** inactive: 0

**Q.** And the “kinase-Nluc reporter destabilization hit call” value ([9]; 10 µM)?
**A.** inactive: 0

**Q.** And the “kinase-Nluc reporter destabilization hit call” value ([10]; 10 µM)?
**A.** inactive: 0

**Q.** What about the “kinase-Nluc reporter destabilization hit call” value ([12]; 10 µM) of the same molecule?
**A.** inactive: 0

**Q.** What about the “number of time points” value ([16]; 10 µM) of the same molecule?
**A.** 0

**Q.** And the “number of time points” value ([17]; 10 µM)?
**A.** 0

**Q.** `CNC(=O)c1cc(Oc2ccc(NC(=O)Nc3ccc(Cl)c(C(F)(F)F)c3)cc2)ccn1` [Sorafenib] was tested. Which “kinase-Nluc reporter destabilization hit call” value ([19]; 2.5 µM) did it give?
**A.** inactive: 0

**Q.** What about the “kinase-Nluc reporter destabilization hit call” value ([20]; 2.5 µM) of the same molecule?
**A.** inactive: 0

**Q.** What about the “kinase-Nluc reporter destabilization hit call” value ([1]; 2.5 µM) of the same molecule?
**A.** inactive: 0

**Q.** What about the “kinase-Nluc reporter destabilization hit call” value ([2]; 2.5 µM) of the same molecule?
**A.** inactive: 0

**Q.** And the “kinase-Nluc reporter destabilization hit call” value ([3]; 2.5 µM)?
**A.** inactive: 0

**Q.** And the “kinase-Nluc reporter destabilization hit call” value ([4]; 2.5 µM)?
**A.** inactive: 0

**Q.** What about the “kinase-Nluc reporter destabilization hit call” value ([5]; 2.5 µM) of the same molecule?
**A.** inactive: 0

**Q.** What about the “kinase-Nluc reporter destabilization hit call” value ([6]; 2.5 µM) of the same molecule?
**A.** inactive: 0

**Q.** And the “kinase-Nluc reporter destabilization hit call” value ([8]; 2.5 µM)?
**A.** inactive: 0

**Q.** And the “kinase-Nluc reporter destabilization hit call” value ([9]; 2.5 µM)?
**A.** inactive: 0

**Q.** What about the “kinase-Nluc reporter destabilization hit call” value ([10]; 2.5 µM) of the same molecule?
**A.** inactive: 0

**Q.** And the “kinase-Nluc reporter destabilization hit call” value ([11]; 2.5 µM)?
**A.** inactive: 0

**Q.** What about the “kinase-Nluc reporter destabilization hit call” value ([12]; 2.5 µM) of the same molecule?
**A.** inactive: 0

**Q.** What about the “kinase-Nluc reporter destabilization hit call” value ([13]; 2.5 µM) of the same molecule?
**A.** inactive: 0

**Q.** What about the “kinase-Nluc reporter destabilization hit call” value ([14]; 2.5 µM) of the same molecule?
**A.** inactive: 0

**Q.** And the “kinase-Nluc reporter destabilization hit call” value ([18]; 2.5 µM)?
**A.** inactive: 0

**Q.** What about the “kinase-Nluc reporter destabilization hit call” value ([15]; 2.5 µM) of the same molecule?
**A.** inactive: 0

**Q.** And the “number of time points” value ([16]; 2.5 µM)?
**A.** 0

**Q.** And the “number of time points” value ([17]; 2.5 µM)?
**A.** 3

**Q.** How did the “kinase-Nluc reporter destabilization hit call” value ([19]; 10 µM) turn out when `O=C1Cc2c([nH]c3ccc(Br)cc23)-c2ccccc2N1` [Kenpaullone] was run?
**A.** inactive: 0

**Q.** And the “kinase-Nluc reporter destabilization hit call” value ([20]; 10 µM)?
**A.** inactive: 0

**Q.** What about the “kinase-Nluc reporter destabilization hit call” value ([1]; 10 µM) of the same molecule?
**A.** inactive: 0

**Q.** And the “kinase-Nluc reporter destabilization hit call” value ([2]; 10 µM)?
**A.** inactive: 0

**Q.** What about the “kinase-Nluc reporter destabilization hit call” value ([3]; 10 µM) of the same molecule?
**A.** inactive: 0

**Q.** What about the “kinase-Nluc reporter destabilization hit call” value ([4]; 10 µM) of the same molecule?
**A.** inactive: 0

**Q.** And the “kinase-Nluc reporter destabilization hit call” value ([5]; 10 µM)?
**A.** inactive: 0

**Q.** What about the “kinase-Nluc reporter destabilization hit call” value ([6]; 10 µM) of the same molecule?
**A.** active: 1

**Q.** What about the “kinase-Nluc reporter destabilization hit call” value ([7]; 10 µM) of the same molecule?
**A.** inactive: 0

**Q.** What about the “kinase-Nluc reporter destabilization hit call” value ([8]; 10 µM) of the same molecule?
**A.** inactive: 0

**Q.** What about the “kinase-Nluc reporter destabilization hit call” value ([9]; 10 µM) of the same molecule?
**A.** inactive: 0

**Q.** And the “kinase-Nluc reporter destabilization hit call” value ([10]; 10 µM)?
**A.** inactive: 0

**Q.** And the “kinase-Nluc reporter destabilization hit call” value ([11]; 10 µM)?
**A.** inactive: 0

**Q.** And the “kinase-Nluc reporter destabilization hit call” value ([13]; 10 µM)?
**A.** inactive: 0

**Q.** And the “kinase-Nluc reporter destabilization hit call” value ([14]; 10 µM)?
**A.** inactive: 0

**Q.** And the “kinase-Nluc reporter destabilization hit call” value ([18]; 10 µM)?
**A.** inactive: 0

**Q.** What about the “kinase-Nluc reporter destabilization hit call” value ([15]; 10 µM) of the same molecule?
**A.** inactive: 0

**Q.** What about the “number of time points” value ([16]; 10 µM) of the same molecule?
**A.** 0

**Q.** And the “number of time points” value ([17]; 10 µM)?
**A.** 0

**Q.** What does the source list for `Nc1ncnc2c1c(-c1cnc3[nH]ccc3c1)nn2C1CCCC1`?
**A.** kinase-Nluc reporter destabilization hit call ([19]; 2.5 µM): inactive: 0; kinase-Nluc reporter destabilization hit call ([20]; 2.5 µM): inactive: 0; kinase-Nluc reporter destabilization hit call ([1]; 2.5 µM): inactive: 0; kinase-Nluc reporter destabilization hit call ([2]; 2.5 µM): inactive: 0; kinase-Nluc reporter destabilization hit call ([3]; 2.5 µM): inactive: 0; kinase-Nluc reporter destabilization hit call ([4]; 2.5 µM): inactive: 0; kinase-Nluc reporter destabilization hit call ([5]; 2.5 µM): inactive: 0; kinase-Nluc reporter destabilization hit call ([6]; 2.5 µM): inactive: 0; kinase-Nluc reporter destabilization hit call ([8]; 2.5 µM): inactive: 0; kinase-Nluc reporter destabilization hit call ([9]; 2.5 µM): inactive: 0; kinase-Nluc reporter destabilization hit call ([10]; 2.5 µM): inactive: 0; kinase-Nluc reporter destabilization hit call ([11]; 2.5 µM): inactive: 0; kinase-Nluc reporter destabilization hit call ([12]; 2.5 µM): inactive: 0; kinase-Nluc reporter destabilization hit call ([13]; 2.5 µM): inactive: 0; kinase-Nluc reporter destabilization hit call ([14]; 2.5 µM): inactive: 0; kinase-Nluc reporter destabilization hit call ([18]; 2.5 µM): inactive: 0; kinase-Nluc reporter destabilization hit call ([15]; 2.5 µM): inactive: 0; number of time points ([16]; 2.5 µM): 0; number of time points ([17]; 2.5 µM): 0
